Literature values, collected in US20170304358A1, “PRIMARY AND SECONDARY PREVENTION OF DEMENTIAS AND SUICIDE WITH TRACE DOSE LITHIUM” (priority 2014, published 2017).
At least one compound was matched to its structure with a doubt left.

Tested on: neurons
Conditions: animal studies, even at very low doses of lithium

## [Li] [lithium]
  neuron survival: keeps neurons alive longer
